Assay results reported in PubChem BioAssay AID1671190 (National Center for Advancing Translational Sciences (NCATS), 2021).
Where “and” joins values, the source holds several entries; their conditions need not be identical. Equal entries are not always repeated. The campaign covered roughly 580,000 compounds. About 6,100 (1.1%) were called active. The inconclusive results got no clear call from the source; some entries with a clear call stand among them for comparison. Calls follow the shape of the dose curve; as a rule, active = well fitted inhibition curve with a large enough effect; inconclusive = small, poorly fitted or top-dose-only effect, or another doubt; inactive = no such curve, though single readings can be large or run the other way. A potency beside an inconclusive call is a rough fit, not a confirmed value.
% is scaled to controls: 0 for no effect and ±100 for the full control effect; potency is read from the fitted curve at half-maximal effect.

The chains behind the UniProt entries cited, without tags or fusion partners. Where a name states a change or a piece, a line headed by the entry shows the natural chain unless it says otherwise.
UniProt P18054: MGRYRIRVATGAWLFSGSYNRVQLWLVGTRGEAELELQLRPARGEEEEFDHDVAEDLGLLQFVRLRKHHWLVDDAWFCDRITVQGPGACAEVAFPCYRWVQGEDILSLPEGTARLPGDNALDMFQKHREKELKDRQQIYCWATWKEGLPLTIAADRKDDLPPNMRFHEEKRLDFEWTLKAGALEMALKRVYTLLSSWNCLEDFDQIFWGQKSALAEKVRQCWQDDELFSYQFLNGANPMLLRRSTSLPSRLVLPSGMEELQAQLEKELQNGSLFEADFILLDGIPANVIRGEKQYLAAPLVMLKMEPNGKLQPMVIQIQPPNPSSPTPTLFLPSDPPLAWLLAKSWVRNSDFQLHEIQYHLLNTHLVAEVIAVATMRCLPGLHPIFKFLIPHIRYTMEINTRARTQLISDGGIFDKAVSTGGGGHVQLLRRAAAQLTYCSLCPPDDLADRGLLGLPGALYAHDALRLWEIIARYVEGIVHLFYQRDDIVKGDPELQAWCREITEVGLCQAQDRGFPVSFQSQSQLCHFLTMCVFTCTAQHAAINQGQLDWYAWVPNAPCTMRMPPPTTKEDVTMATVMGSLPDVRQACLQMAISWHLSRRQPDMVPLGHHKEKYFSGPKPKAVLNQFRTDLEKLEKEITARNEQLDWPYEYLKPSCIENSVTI

These molecules were tested against Polyunsaturated fatty acid lipoxygenase ALOX12 (Homo sapiens) (UniProt P18054) (assay: Primary qHTS assay for inhibitors of human arachidonate 12S-lipoxygenase (ALOX12): Round 2). Details: purified 12hLO, xylenol orange hydroperoxide absorbance; activity change, negative = inhibition: at 108 µM (top of the series) unless noted.
Outline: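 Purified human 12hLO (150 nM final) in 25 mM Hepes, 0.01% Triton X-100, pH 7.0 was preincubated 15 min at room temperature with compound. Then 40 uM arachidonic acid was added, 30 min. Hydroperoxide was read by Fe-XO absorbance ratio 573/405 nm.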
`CC1CC(C)CN(C(=O)COC(=O)c2ccc([N+](=O)[O-])o2)C1` (stereo unspecified) was tested, and the Potency was inconclusive: 3.98 µM [inhibitor, full curve, poor fit]. For `COc1ccc(F)cc1C(=O)C1CCCN(Cc2cccn2-c2ccccn2)C1` (stereo unspecified), the Potency was “inactive”. With `COC(=O)c1cccc(N2C(=O)c3cccnc3C2=O)c1` the Potency was inconclusive: 2.24 µM [inhibitor, partial curve, poor fit]. For `O=C(Cc1ccc(F)cc1)N1CCC(c2n[nH]c(=O)n2Cc2ccc(F)cc2)CC1`, the Potency was inconclusive: 25.1 µM [inhibitor, partial curve, poor fit]. With `O=C(NNS(=O)(=O)c1ccccc1Cl)C1COc2ccccc2O1` (stereo unspecified) the Potency was “inactive”. In the case of `COc1ccc(-c2cc(OC(=O)c3ccccc3C)c3c(C)oc(C)c3c(=O)c2)cc1`, the Potency is reported as “inactive”. `CC(=O)Nc1ccc(C(=O)OCC(=O)N2CCC(Cc3ccccc3)CC2)cc1` was tested, and the Potency was inconclusive: 100 µM [inhibitor, partial curve, poor fit]. For `Cc1ccc(C(=O)N2CCC(CCC(=O)NC3CCCCCC3)CC2)cc1`, the Potency was inconclusive: 7.94 µM [inhibitor, full curve]. With `CC(=O)Nc1ccc(NC(=O)c2cc(=O)c3cc(C)cc(C)c3o2)cc1` the Potency was inconclusive: 112 µM [inhibitor, single point]. `CCSc1nnc(N2C(=O)C(O)=C(C(=O)c3ccco3)C2c2cccc(OC)c2)s1` (stereo unspecified) was tested, and the Potency was inconclusive: 44.7 µM [inhibitor, partial curve, poor fit]. With `COc1ccccc1-c1coc2cc(OCc3ccc(C)cc3)ccc2c1=O` the Potency was “inactive”. `COc1ccc(S(=O)(=O)N2CCSC2c2cc(OC)c(OC)cc2OC)cc1` (stereo unspecified) was tested, and the Potency was inconclusive: 44.7 µM [inhibitor, partial curve, poor fit]. With `COC(=O)c1ccc2[nH]ccc2c1` the Potency was inconclusive: 50.1 µM [inhibitor, partial curve, poor fit]. With `CCC(NC(=O)CCC(=O)N1CCN(S(=O)(=O)c2ccc(C)cc2)CC1)c1ccc(C)cc1` (stereo unspecified) the Potency was inconclusive: 100 µM [inhibitor, single point]. With `F[C@@H]1CN(Cc2ccnc3ccccc23)C[C@@H]1OCc1nc2ncccc2[nH]1` the Potency was “inactive”. For `Cc1ccc(NCc2nnc(SCc3ccc(C#N)cc3)n2Cc2ccco2)c(C)c1`, the Potency was inconclusive: 35.5 µM [inhibitor, single point]. In the case of `O=c1c2cnn(-c3ccccc3)c2ncn1CCc1ccccc1`, the Potency is reported as “inactive”. In the case of `COc1cccc(-n2cnc3c2NC(=O)CC3c2ccsc2)c1` (stereo unspecified), the Potency is reported as inconclusive: 31.6 µM [inhibitor, single point]. In the case of `CCN(CC)CCC(=O)N1c2ccccc2Sc2ccc(C(F)(F)F)cc21`, the Potency is reported as inconclusive: 79.4 µM [inhibitor, partial curve, poor fit]. For `Cc1ccc(-c2nc(N)sc2-c2ccc(C)cc2)cc1`, the Potency was inconclusive: 100 µM [inhibitor, single point]. `COc1ccc(-n2nnnc2C2CCN(S(=O)(=O)c3cc(OC)ccc3OC)CC2)cc1` was tested, and the Potency was “inactive”. In the case of `O=C(NCCn1cccc1-c1nc(-c2ccccc2)no1)c1ccccc1F`, the Potency is reported as “inactive”. For `CCN1C(=O)CCC2(C(=O)NCc3c(C)n[nH]c3C)CCCC=C12` (stereo unspecified), the Potency was “inactive”. `COc1cccc(C=Nc2ccc(N3CCOCC3)cc2)c1O` was tested, and the Potency was inconclusive: 35.5 µM [inhibitor, partial curve, poor fit]. For `CC(=O)NCCCC(=O)N1CCOC2(CCN(C(=O)C3CCN(C)CC3)CC2)C1`, the activity change, negative = inhibition was inactive: 2.67% [at 6.33 µM]. For `CC(=O)Nc1ccc(NC(=O)CCc2c(C)nc3c(c(C)nn3-c3ccc(C)cc3)c2C)cc1`, the Potency was inconclusive: 158 µM [inhibitor, partial curve, poor fit]. In the case of `COCc1ccc(C(=O)Nc2cccc(C(=O)Nc3cccc(C(F)(F)F)c3)c2)cc1`, the Potency is reported as inconclusive: 35.5 µM [inhibitor, partial curve, poor fit]. `O=C(CCCN=C1NS(=O)(=O)c2ccccc21)OCC(=O)c1ccccc1Cl` was tested, and the Potency was “inactive”. In the case of `Cc1ccc(NC(=S)NNC(=S)NCc2ccccc2)cc1`, the Potency is reported as “inactive”. With `C=CCNc1nc(-c2sc(NC(C)=O)nc2C)cs1` the Potency was inconclusive: 44.7 µM [inhibitor, partial curve, poor fit]. `O=C(CSc1ccc2c(c1)OCCCO2)c1ccc(NC(=O)c2ccccc2)cc1` was tested, and the Potency was inconclusive: 79.4 µM [inhibitor, single point]. In the case of `Cc1ccc(C)c(NC(=O)CSc2nnc(CNC(=O)c3ccccc3)n2-c2ccccc2)c1`, the Potency is reported as inconclusive: 0.708 µM [inhibitor, full curve, poor fit]. For `Cc1sc2nc(CN3CCOCC3)[nH]c(=S)c2c1C`, the Potency was inconclusive: 7.94 µM [inhibitor, partial curve, poor fit]. In the case of `O=C(NCc1ccc(F)cc1)c1n[nH]c(=O)c2ccccc12`, the Potency is reported as “inactive”. `FC(F)(F)c1ccccc1-c1ccc2ncnc(NCCN3CCOCC3)c2c1` was tested, and the Potency was inconclusive: 100 µM [inhibitor, partial curve, poor fit]. `N#Cc1ccc(COC(=O)c2cnccn2)cc1` was tested, and the Potency was “inactive”. In the case of `Cc1cc(Nc2cccc([N+](=O)[O-])c2)c2cccc(C)c2n1`, the Potency is reported as inconclusive: 126 µM [inhibitor, single point] and inconclusive: 10 µM [inhibitor, partial curve, poor fit]. `O[C@@H]1CN(CC2CCCCC2)[C@@H](c2ccccc2)C[C@H]1n1cc(-c2ccc(F)cc2)nn1` was tested, and the Potency was “inactive”. With `CC(C)c1ccc(NC(=S)N2CCN(S(=O)(=O)c3ccccc3)CC2)cc1` the Potency was inconclusive: 50.1 µM [inhibitor, partial curve, poor fit]. For `CC(C)(C)c1ccc(/C=N/NC(=S)NC2CCCCC2)cc1`, the Potency was active: 28.2 µM. For `CCC(CC)NC(=O)Nc1ccccc1F`, the Potency was inconclusive: 56.2 µM [inhibitor, partial curve, poor fit]. In the case of `CCOC(=O)c1c(NC(=S)Nc2ccc(OC)cc2)sc2c1CCC2`, the Potency is reported as inconclusive: 28.2 µM [inhibitor, full curve, poor fit]. `Cc1ccc(S(=O)(=O)CCc2nnc(NC(=O)c3cnccn3)s2)cc1` was tested, and the Potency was “inactive”. `Cc1ccc(S(=O)(=O)NCC(=O)OCCOc2cccc(Cl)c2)cc1` was tested, and the Potency was inconclusive: 50.1 µM [inhibitor, partial curve, poor fit]. For `O=C(O)[C@H](Cc1ccccc1)NC(=O)N1CCC(Cc2ccccc2)CC1`, the Potency was inconclusive: 3.16 µM [inhibitor, full curve, poor fit]. For `CCNC(=S)N/N=C/c1ccccc1F`, the Potency was inconclusive: 126 µM [inhibitor, partial curve, poor fit]. `O=C(c1ccco1)N1CCN(C(c2ccccc2F)c2nnnn2CC2CCCO2)CC1` (stereo unspecified) was tested, and the Potency was inconclusive: 35.5 µM [inhibitor, partial curve, poor fit]. With `COc1ccc(-c2nc3cnc(Nc4cccc(OC)c4)nc3n(C3CC3)c2=O)cc1` the Potency was inconclusive: 44.7 µM [inhibitor, partial curve, poor fit]. For `CCOc1ccc2nc(NC(=O)C3CCCN(S(=O)(=O)c4cccc5nonc45)C3)sc2c1` (stereo unspecified), the Potency was “inactive”. For `O=C1CN(Cc2ccccc2)CCN1c1ccc(Cl)nn1`, the Potency was “inactive”. `COc1ccc(CCN2CC(C(=O)N3CCN(C)CC3)CCC2=O)cc1` (stereo unspecified) was tested, and the Potency was “inactive”. For `CC(C)N(C)c1ncnc2c1ncn2[C@H]1CN(Cc2cccnc2)C[C@@H](CO)O1`, the Potency was “inactive”. For `Clc1ccc(-c2ccc(CNCC3CCCO3)o2)cc1` (stereo unspecified), the Potency was inconclusive: 112 µM [inhibitor, partial curve, poor fit]. `CCOC(=O)Cn1c(C2CC(=O)N(c3ccc(C)cc3)C2)nc2ccccc21` (stereo unspecified) was tested, and the Potency was “inactive”. `COc1ccc(NCC(=O)n2c(C)c(C)c3ccccc32)cc1OC` was tested, and the Potency was inconclusive: 50.1 µM [inhibitor, partial curve, poor fit]. In the case of `CCOCCCNC(=O)N[C@H](C(=O)O)C(C)CC` (stereo partly specified), the Potency is reported as inconclusive: 22.4 µM [inhibitor, single point]. For `C/C(=N\NS(=O)(=O)c1ccccc1)c1cc(Cl)cc(Cl)c1O`, the Potency was inconclusive: 25.1 µM [inhibitor, single point]. `O=C1C(=Cc2cccc(O)c2O)SC(=S)N1CCCN1CCOCC1` was tested, and the Potency was active: 6.31 µM. For `Cc1ccccc1OCCn1cc(C(=O)C2CCCCC2)c2ccccc21`, the Potency was inconclusive: 112 µM [inhibitor, single point]. With `CCCCCC(=O)N1C[C@@H](O)[C@H](n2cc(COC(=O)c3ccccc3)nn2)C[C@@H]1c1ccc(C)cc1` the Potency was inconclusive: 100 µM [inhibitor, single point]. For `CCOC(=O)c1cc(C)nc2c1c(=O)n(Cc1nc(-c3ccc(C(C)C)cc3)oc1C)c(=O)n2C`, the Potency was inconclusive: 17.8 µM [inhibitor, partial curve, poor fit]. For `CCSC1=N/C(=C\c2ccc(SC)cc2)C(=O)S1`, the Potency was inconclusive: 112 µM [inhibitor, partial curve, poor fit]. `COc1ccc(N2CCN(C(=O)CN=C3NS(=O)(=O)C(c4ccc(C)cc4)=C3C)CC2)cc1` was tested, and the Potency was inconclusive: 44.7 µM [inhibitor, partial curve, poor fit]. For `S=C(NCc1ccc(Cl)cc1)C1CCCCC1`, the Potency was inconclusive: 50.1 µM [inhibitor, partial curve, poor fit]. `CSCC1CCN(C(=O)CN2CC(c3ccccc3)CC2=O)CC1` (stereo unspecified) was tested, and the Potency was “inactive”. In the case of `CCOC(=O)c1sc(NC(=O)c2cccc(S(=O)(=O)N3CCc4ccccc43)c2)c(C#N)c1C`, the Potency is reported as inconclusive: 56.2 µM [inhibitor, partial curve, poor fit].
